Where “and” joins values, the source holds several entries; their conditions need not be identical. Identical values can stand only once. This continues a long series; more values of the same kind are listed elsewhere. Values belong to the molecule of their own block, whether it stands above or below them.
Legend:
FIH [1] = target: T1, FIH (Homo sapiens, UniProt Q9NWT6); assay: Competition assay in a single reaction vessel, FIH-catalyzed hydroxylation (SPE-MS); type: biochemical; settings: Fig 2b, 20 μM 2OG
Experimental: Mean of three independent runs (n = 3; mean ± SD). […] Cosubstrates: a 20 μM 2OG; b 20 μM 2OG; c 20 μM 1; d 20 μM 12; e 20 μM 12 and 100 μM 2OG; f 100 μM 14. Source data are provided as a Source Data file.
Mean of three independent runs (n = 3; mean ± SD). […] Source data are provided as a Source Data file.
Peptide turnover was monitored by SPE-MS using the same instrument configuration (with the exception that the peptides were eluted from the SPE cartridge with 0.1%v/v aqueous formic acid in 80/20 v/v acetonitrile/water) as described above.
FIH and AspH-catalyzed peptide hydroxylations were analyzed simultaneously using SPE-MS as described in the
Methods section; competition experiments were performed in the same reaction vessel using equimolar 2OG
oxygenase and substrate concentrations. […]
Source data are provided as a Source Data file.
FIH and AspH-catalyzed peptide hydroxylations were analyzed simultaneously using SPE-
MS as described in the Methods section; competition experiments were performed in the same reaction vessel
using equimolar 2OG oxygenase and substrate concentrations. […]
2OG, 100 μM 14. Source data are provided as a Source Data file.

Protein sequences, listed by entry. Tags and fused reporters are not part of them. Lines headed by an entry give the natural chain unless they say otherwise; changes in a name come on top.
UniProt Q9NWT6: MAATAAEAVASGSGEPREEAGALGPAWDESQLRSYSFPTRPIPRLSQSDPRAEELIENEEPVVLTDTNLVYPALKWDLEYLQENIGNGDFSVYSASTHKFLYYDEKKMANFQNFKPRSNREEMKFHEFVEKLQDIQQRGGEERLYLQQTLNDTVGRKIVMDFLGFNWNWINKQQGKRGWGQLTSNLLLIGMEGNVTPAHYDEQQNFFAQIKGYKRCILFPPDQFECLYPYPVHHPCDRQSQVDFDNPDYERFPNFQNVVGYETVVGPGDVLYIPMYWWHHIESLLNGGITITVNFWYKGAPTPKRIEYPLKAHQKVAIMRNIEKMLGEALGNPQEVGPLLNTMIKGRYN

FIH [2] = target: T1, FIH; assay: FIH steady-state kinetic parameters (SPE-MS, initial hydroxylation rates); type: biochemical
Experimental: Final 2OG/2OG derivative concentrations are given in Supplementary Figs. 5 and 6. Reactions were monitored with a rate of ~1 sample/40 s using the same SPE-MS configuration as described above. Data were analyzed as described above and the slopes of the initial reaction rates (Supplementary Figs. 5 and 6) fitted to a Michaelis–Menten plot using non-linear regression (GraphPad Prism 5). […]
determine kinetic parameters for 2OG derivatives (continues on the following page). Maximum velocities (vapp ) and Michaelis constants (Kapp) of FIH were determined in independent triplicates for 2OG and the 2OG […]
SPE-MS as described in the Methods section. […]
acid (LAA), and 20 μM ammonium iron(II) sulfate hexahydrate (FAS, (NH4)2Fe(SO4)2·6H2O) in buffer (50 mM […]
Tris, 50 mM NaCl, pH 7.5, 20° C). […]
data are provided as a Source Data file. […]
concentrations of 2OG; (b) hydroxylation rates used to determine kinetic parameters of FIH for 2OG; (c) time […]
3-methyl-2OG (1); (d) hydroxylation rates used to determine kinetic parameters of FIH for 1; (e) time course of […]
2OG (12); (f) hydroxylation rates used to determine kinetic parameters of FIH for 12; (g) time course of the FIH- […]
(h) hydroxylation rates used to determine kinetic parameters of FIH for 14; (i) time course of the FIH-catalyzed […]
(carboxycarbonyl)cyclopentane-1-carboxylic acid (22); (j) hydroxylation rates used to determine kinetic parameters of FIH for 22.
Supplementary Figure 6. Hydroxylation rates of FIH-catalyzed CA1-20 hydroxylations used to determine kinetic parameters for 2OG derivatives (continues on the following page). Maximum velocities (vapp ) and […]
ammonium iron(II) sulfate hexahydrate (FAS, (NH4)2Fe(SO4)2·6H2O) in buffer (50 mM Tris, 50 mM NaCl, pH […]
Source data are provided as a Source […]
of 2OG; (b) hydroxylation rates used to determine kinetic parameters of FIH for 2OG; (c) time course of the FIH-catalyzed hydroxylation reaction of the CA1-20 peptide for the shown concentrations of 3-methyl-2OG (1); (d) hydroxylation rates used to determine kinetic parameters of FIH for 1; (e) time course of the FIH -catalyzed hydroxylation reaction of the CA 1-20 peptide for the shown concentrations of 4 -methyl-2OG (12); (f) hydroxylation rates used to determine kinetic parameters of FIH for 12; (g) time course of the FIH-catalyzed hydroxylation reaction of the CA1-20 peptide for the shown concentrations of 4-ethyl-2OG (14); (h) hydroxylation rates used to determine kinetic parameters of FIH for 14; (i) time course of the FIH-catalyzed hydroxylation reaction of the CA1-20 peptide for the shown concentrations of 3-(carboxycarbonyl)cyclopentane-1-carboxylic acid (22); (j) hydroxylation rates used to determine kinetic parameters of FIH for 22.

substrate hydroxylation (% conversion) (FIH [1]; 0 min): 11.5964 and 13.5396 and 14.72
substrate hydroxylation (% conversion) (FIH [1]; 0.2395 min): 24.7804 and 23.3024 and 25.6576
substrate hydroxylation (% conversion) (FIH [1]; 0.479333 min): 35.8187 and 32.4008 and 35.6628
substrate hydroxylation (% conversion) (FIH [1]; 0.720167 min): 44.676 and 40.8832 and 43.8025
substrate hydroxylation (% conversion) (FIH [1]; 0.958667 min): 52.6778 and 47.8294 and 50.9098
substrate hydroxylation (% conversion) (FIH [1]; 1.19933 min): 56.9565
substrate hydroxylation (% conversion) (FIH [1]; 1.4395 min): 64.466 and 59.4055 and 62.1371
substrate hydroxylation (% conversion) (FIH [1]; 1.6805 min): 68.74 and 63.8072 and 66.578
substrate hydroxylation (% conversion) (FIH [1]; 1.9205 min): 72.4813 and 67.7693 and 70.3323
substrate hydroxylation (% conversion) (FIH [1]; 2.1615 min): 76.0778 and 71.4186 and 73.3987
substrate hydroxylation (% conversion) (FIH [1]; 2.40217 min): 79.1496 and 73.9261 and 76.0106
substrate hydroxylation (% conversion) (FIH [1]; 2.64367 min): 81.3261 and 76.569 and 78.5159
substrate hydroxylation (% conversion) (FIH [1]; 2.88417 min): 84.0687 and 78.7132 and 80.7199
substrate hydroxylation (% conversion) (FIH [1]; 3.1255 min): 85.6054 and 80.8971 and 82.7315
substrate hydroxylation (% conversion) (FIH [1]; 3.3665 min): 87.1073 and 82.6984 and 84.48
substrate hydroxylation (% conversion) (FIH [1]; 3.60917 min): 88.317 and 83.5071 and 85.4213
substrate hydroxylation (% conversion) (FIH [1]; 3.84967 min): 89.8726 and 80.8464 and 84.2899
Structure (SMILES): O=C(O)CCC(=O)C(=O)O [2OG, 2-Oxoglutarate]

SPE-MS determined concentration of hydroxylated HIF-1a peptide (FIH [2]; 4 uM compound 22 as cosubstrate, time 4.19733 min, replicates 1-3): 0.0687 µM and 0.08548 µM and 0.04585 µM
SPE-MS determined concentration of hydroxylated HIF-1a peptide (FIH [2]; 4 uM compound 22 as cosubstrate, time 4.89717 min, replicates 1-3): 0.06536 µM and 0.08976 µM and 0.05821 µM
SPE-MS determined concentration of hydroxylated HIF-1a peptide (FIH [2]; 4 uM compound 22 as cosubstrate, time 5.5955 min, replicates 1-3): 0.06524 µM and 0.0905 µM and 0.04999 µM
SPE-MS determined concentration of hydroxylated HIF-1a peptide (FIH [2]; 4 uM compound 22 as cosubstrate, time 6.29533 min, replicates 1-3): 0.07092 µM and 0.0912 µM and 0.06779 µM
SPE-MS determined concentration of hydroxylated HIF-1a peptide (FIH [2]; 8 uM compound 22 as cosubstrate, time 4.19733 min, replicates 1-3): 0.08132 µM and 0.1065 µM
SPE-MS determined concentration of hydroxylated HIF-1a peptide (FIH [2]; 8 uM compound 22 as cosubstrate, time 4.89717 min, replicates 1-3): 0.08477 µM and 0.08938 µM and 0.1172 µM
SPE-MS determined concentration of hydroxylated HIF-1a peptide (FIH [2]; 8 uM compound 22 as cosubstrate, time 5.5955 min, replicates 1-3): 0.09486 µM and 0.09401 µM and 0.1257 µM
SPE-MS determined concentration of hydroxylated HIF-1a peptide (FIH [2]; 8 uM compound 22 as cosubstrate, time 6.29533 min, replicates 1-3): 0.09139 µM and 0.0929 µM and 0.1229 µM
SPE-MS determined concentration of hydroxylated HIF-1a peptide (FIH [2]; 16 uM compound 22 as cosubstrate, time 4.19733 min, replicates 1-3): 0.1145 µM and 0.1416 µM and 0.1182 µM
SPE-MS determined concentration of hydroxylated HIF-1a peptide (FIH [2]; 16 uM compound 22 as cosubstrate, time 4.89717 min, replicates 1-3): 0.1267 µM and 0.1507 µM and 0.1165 µM
SPE-MS determined concentration of hydroxylated HIF-1a peptide (FIH [2]; 16 uM compound 22 as cosubstrate, time 5.5955 min, replicates 1-3): 0.1292 µM and 0.1609 µM and 0.1309 µM
SPE-MS determined concentration of hydroxylated HIF-1a peptide (FIH [2]; 16 uM compound 22 as cosubstrate, time 6.29533 min, replicates 1-3): 0.1357 µM and 0.1671 µM and 0.1126 µM
SPE-MS determined concentration of hydroxylated HIF-1a peptide (FIH [2]; 32 uM compound 22 as cosubstrate, time 4.19733 min, replicates 1-3): 0.1616 µM and 0.1896 µM and 0.1548 µM
SPE-MS determined concentration of hydroxylated HIF-1a peptide (FIH [2]; 32 uM compound 22 as cosubstrate, time 4.89717 min, replicates 1-3): 0.1701 µM and 0.1912 µM and 0.1711 µM
SPE-MS determined concentration of hydroxylated HIF-1a peptide (FIH [2]; 32 uM compound 22 as cosubstrate, time 5.5955 min, replicates 1-3): 0.1895 µM and 0.2188 µM and 0.1879 µM
SPE-MS determined concentration of hydroxylated HIF-1a peptide (FIH [2]; 32 uM compound 22 as cosubstrate, time 6.29533 min, replicates 1-3): 0.1873 µM and 0.219 µM and 0.1996 µM
SPE-MS determined concentration of hydroxylated HIF-1a peptide (FIH [2]; 64 uM compound 22 as cosubstrate, time 4.19733 min, replicates 1-3): 0.1876 µM and 0.2212 µM and 0.2004 µM
SPE-MS determined concentration of hydroxylated HIF-1a peptide (FIH [2]; 64 uM compound 22 as cosubstrate, time 4.89717 min, replicates 1-3): 0.2003 µM and 0.2402 µM and 0.2163 µM
SPE-MS determined concentration of hydroxylated HIF-1a peptide (FIH [2]; 64 uM compound 22 as cosubstrate, time 5.5955 min, replicates 1-3): 0.2245 µM and 0.264 µM and 0.2398 µM
SPE-MS determined concentration of hydroxylated HIF-1a peptide (FIH [2]; 64 uM compound 22 as cosubstrate, time 6.29533 min, replicates 1-3): 0.2275 µM and 0.267 µM and 0.2434 µM
SPE-MS determined concentration of hydroxylated HIF-1a peptide (FIH [2]; 128 uM compound 22 as cosubstrate, time 4.19733 min, replicates 1-3): 0.221 µM and 0.2386 µM and 0.2344 µM
SPE-MS determined concentration of hydroxylated HIF-1a peptide (FIH [2]; 128 uM compound 22 as cosubstrate, time 4.89717 min, replicates 1-3): 0.2347 µM and 0.2601 µM and 0.2594 µM
SPE-MS determined concentration of hydroxylated HIF-1a peptide (FIH [2]; 128 uM compound 22 as cosubstrate, time 5.5955 min, replicates 1-3): 0.2462 µM and 0.2725 µM and 0.2749 µM
SPE-MS determined concentration of hydroxylated HIF-1a peptide (FIH [2]; 128 uM compound 22 as cosubstrate, time 6.29533 min, replicates 1-3): 0.2654 µM and 0.2853 µM and 0.2954 µM
SPE-MS determined concentration of hydroxylated HIF-1a peptide (FIH [2]; 256 uM compound 22 as cosubstrate, time 4.19733 min, replicates 2-3 (replicate 1 empty)): 0.263 µM and 0.2519 µM
SPE-MS determined concentration of hydroxylated HIF-1a peptide (FIH [2]; 256 uM compound 22 as cosubstrate, time 4.89717 min, replicates 2-3 (replicate 1 empty)): 0.2861 µM and 0.277 µM
SPE-MS determined concentration of hydroxylated HIF-1a peptide (FIH [2]; 256 uM compound 22 as cosubstrate, time 5.5955 min, replicates 2-3 (replicate 1 empty)): 0.3111 µM and 0.298 µM
SPE-MS determined concentration of hydroxylated HIF-1a peptide (FIH [2]; 256 uM compound 22 as cosubstrate, time 6.29533 min, replicates 2-3 (replicate 1 empty)): 0.3064 µM and 0.3077 µM
Structure (SMILES): O=C(O)C(=O)C1CCC(C(=O)O)C1 (stereo not drawn) [compound 22, 3-(carboxycarbonyl)cyclopentane-1-carboxylic acid]
